# Cleaved PARP in drug-treated melanoma cells

Values as published with doi:10.1371/journal.pone.0140310, rounded.

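Human melanoma cell lines in 1,536-well plates were treated with two drugs together for 72 h, then fixed, stained and imaged. Values are the share of nuclei positive for cleaved PARP as a percentage of the same share in the DMSO control: 100 is the control level, higher means more apoptosis. Concentrations were fixed for each drug; these are the higher of two levels. The file gives one value for each pair and line, without errors, so small differences may be noise. Basal and induced levels differ widely between cell lines.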 An unselected part of the screen is shown. A dash means that no value is listed here.

All values are for the listed drug together with YM155 (2 nM): COCC[n+]1c2c(n(Cc3cnccn3)c1C)C(=O)c1ccccc1C2=O

| Partner | LB2518-MEL | COLO 829 | A101D | WM1716 | MeWo | G-361 | UACC-257 | MZ2-MEL | C32 | SK-MEL-28 |
|---|---|---|---|---|---|---|---|---|---|---|
| NC(=O)Nc1cc(-c2cccc(F)c2)sc1C(=O)N[C@H]1CCCNC1 at 100 nM | 748 | 179 | 239 | 313 | 790 | 184 | 1250 | 541 | 541 | 479 |
| C=CCn1c(=O)c2cnc(Nc3ccc(N4CCN(C)CC4)cc3)nc2n1-c1cccc(C(C)(C)O)n1 at 100 nM | 577 | 46.1 | 149 | 127 | 301 | 114 | 2700 | 331 | 150 | 653 |
| CCN(CC)CCCCNc1ncc2cc(-c3cc(OC)cc(OC)c3)c(NC(=O)NC(C)(C)C)nc2n1 at 500 nM | 212 | 98.7 | 230 | 88.2 | 159 | 23.2 | 74.1 | 600 | 90.9 | 114 |
| O=C(CCCCCCC(=O)Nc1ccccc1)NO at 400 nM | 185 | 47.1 | 71.7 | 107 | 302 | 115 | 1320 | 399 | 93.6 | 159 |
| C=CCNC1=C2C[C@@H](C)C[C@H](OC)[C@H](O)[C@@H](C)/C=C(\C)[C@H](OC(N)=O)[C@@H](OC)/C=C\C=C(/C)C(=O)NC(=CC1=O)C2=O at 10 nM | 721 | 146 | 92.7 | 137 | 894 | 269 | 183 | 1080 | 757 | 391 |
| C[C@]1(O)C[C@@H](c2nc(-c3ccc4ccc(-c5ccccc5)nc4c3)c3c(N)nccn32)C1 at 2000 nM | 443 | 136 | 59.0 | 122 | 490 | 111 | 1350 | 388 | 59.2 | 679 |
| C[C@@H](N)c1ccc(C(=O)Nc2ccnc3[nH]ccc23)cc1 at 2000 nM | 521 | 228 | 419 | 253 | 881 | 110 | 785 | 2340 | 229 | 382 |
| CN1CCN(c2ccc3nc(-c4c(N)c5c(F)cccc5[nH]c4=O)[nH]c3c2)CC1 at 500 nM | 452 | 90.6 | 103 | 245 | 601 | 99.0 | 1230 | 514 | 293 | 856 |
| Cc1ccc(Nc2nccc(N(C)c3ccc4c(C)n(C)nc4c3)n2)cc1S(N)(=O)=O at 2000 nM | 661 | 174 | 122 | 124 | 312 | 98.2 | 1470 | 398 | 104 | 243 |
| CC1(C)NC(=O)N(c2ccc([N+](=O)[O-])c(C(F)(F)F)c2)C1=O at 5000 nM | 195 | 284 | 125 | 134 | 105 | 220 | 1640 | 173 | 87.2 | 786 |
| CCCCCCCCc1ccc(CCC(N)(CO)CO)cc1 at 10000 nM | 40200 | 60.7 | 2010 | 56.6 | 382 | 11000 | 2710 | 15900 | 745 | 20700 |
| NC(=O)c1ccc(N(C(N)=O)c2c(F)cccc2F)nc1-c1ccc(F)cc1F at 2000 nM | - | 149 | 112 | 307 | 265 | 134 | 1530 | - | 100 | 492 |
| CC(=O)c1c(C)c2cnc(Nc3ccc(N4CCNCC4)cn3)nc2n(C2CCCC2)c1=O at 200 nM | 533 | 157 | 114 | 90.8 | 221 | 113 | 1030 | 327 | 178 | 262 |
| CNC(=O)c1cc(Oc2ccc(NC(=O)Nc3ccc(Cl)c(C(F)(F)F)c3)cc2)ccn1 at 2000 nM | - | 25.1 | 89.4 | 77.0 | 133 | 103 | 1290 | - | 107 | 479 |
| CC1(C)CCC(c2ccc(Cl)cc2)=C(CN2CCN(c3ccc(C(=O)NS(=O)(=O)c4ccc(N[C@H](CCN5CCOCC5)CSc5ccccc5)c(S(=O)(=O)C(F)(F)F)c4)cc3)CC2)C1 at 2000 nM | 837 | 159 | 384 | 1570 | 1380 | 502 | 427 | 3760 | 180 | 2930 |
| Cn1cc(/C=C2\C(=O)Nc3cccnc32)c2ccccc21 at 2000 nM | 143 | 112 | 123 | 124 | 85.0 | 93.1 | 266 | 781 | 90.0 | 111 |
| CCCCCCCCCCCC1=C(O)C(=O)C=C(O)C1=O at 6000 nM | 89.0 | 34.7 | 142 | 37.9 | 87.9 | 271 | 118 | 405 | 90.5 | 247 |
| Cn1c(Nc2ccc(C(F)(F)F)cc2)nc2cc(Oc3ccnc(-c4ncc(C(F)(F)F)[nH]4)c3)ccc21 at 400 nM | 502 | 261 | 64.3 | 269 | 328 | 1150 | 1780 | 886 | 41.0 | 282 |
| Cc1cc(SCc2sc(-c3ccc(C(F)(F)F)c(F)c3)nc2C)ccc1OCC(=O)O at 10000 nM | 391 | 137 | 122 | 95.5 | 120 | 89.5 | 240 | 344 | 72.6 | 795 |
| O=C(/C=C/c1cccnc1)NCCCCC1CCN(C(=O)c2ccccc2)CC1 at 50 nM | 609 | 560 | 160 | 163 | 674 | 6770 | 2180 | 1090 | 168 | 480 |
| CCN(CC)CCNC(=O)c1c(C)[nH]c(/C=C2\C(=O)Nc3ccc(F)cc32)c1C at 2000 nM | 219 | 89.2 | 101 | 104 | 243 | 106 | 935 | 111 | 70.1 | 57.0 |
| C[C@]1(c2nc3c(C(N)=O)cccc3[nH]2)CCCN1 at 7000 nM | 386 | 255 | 150 | 157 | 202 | 63.5 | 1350 | 539 | 198 | 258 |
| CO[C@H]1C[C@@H]2CC[C@@H](C)[C@@](O)(O2)C(=O)C(=O)N2CCCC[C@H]2C(=O)O[C@H]([C@H](C)C[C@@H]2CC[C@@H](OCCO)[C@H](OC)C2)CC(=O)[C@H](C)/C=C(\C)[C@@H](O)[C@@H](OC)C(=O)[C@H](C)C[C@H](C)/C=C/C=C/C=C/1C at 100 nM | - | 76.6 | 173 | 78.3 | 257 | 123 | 2020 | - | 124 | 190 |
| Nc1cccc2c1CN(C1CCC(=O)NC1=O)C2=O (stereo not drawn) at 5000 nM | 503 | 350 | 62.3 | 87.7 | 493 | 168 | 1270 | 635 | 43.8 | 321 |
| CC[C@]1(O)C[C@H]2CN(CCc3c([nH]c4ccccc34)[C@@](C(=O)OC)(c3cc4c(cc3OC)N(C=O)[C@H]3[C@@](O)(C(=O)OC)[C@H](OC(C)=O)[C@]5(CC)C=CCN6CC[C@]43[C@@H]65)C2)C1 at 0.5 nM | 499 | 239 | 49.0 | 337 | 280 | 126 | 3030 | 462 | 122 | 326 |
| COc1cc(N2CCC(N3CCN(C)CC3)CC2)ccc1Nc1ncc(Cl)c(Nc2ccccc2S(=O)(=O)C(C)C)n1 at 400 nM | 755 | 150 | 160 | 302 | 227 | 192 | 106 | 1620 | 102 | 295 |
| c1cc(-c2cnn3cc(-c4ccc(OCCN5CCCCC5)cc4)cnc23)ccn1 at 2000 nM | 401 | 63.6 | 82.3 | 133 | 110 | 233 | 243 | 694 | 147 | 362 |
| CN(c1ncccc1CNc1nc(Nc2ccc3c(c2)CC(=O)N3)ncc1C(F)(F)F)S(C)(=O)=O at 400 nM | - | 166 | 52.0 | 194 | 543 | 173 | 2900 | - | 251 | 230 |
| COc1cc([C@@H]2c3cc4c(cc3[C@@H](O[C@@H]3O[C@@H]5CO[C@@H](C)O[C@H]5[C@H](O)[C@H]3O)[C@H]3COC(=O)[C@H]23)OCO4)cc(OC)c1O at 100 nM | 234 | 131 | 254 | 103 | 688 | 125 | 2390 | 458 | 88.3 | 245 |
| C[C@@H]1CCN(C(=O)CC#N)C[C@@H]1N(C)c1ncnc2[nH]ccc12 at 5000 nM | 131 | 56.3 | 72.9 | 28.5 | 160 | 105 | 1420 | 537 | 51.5 | 121 |
| CS(=O)(=O)CCNCc1ccc(-c2ccc3ncnc(Nc4ccc(OCc5cccc(F)c5)c(Cl)c4)c3c2)o1 at 4000 nM | 2680 | 549 | 458 | 85.7 | 3030 | 425 | 1990 | 2060 | 700 | 3280 |
| CCc1ccc(CCOc2ccc(CC3SC(=O)NC3=O)cc2)nc1 (stereo not drawn) at 10000 nM | 255 | 138 | 61.1 | 161 | 127 | 221 | 103 | 523 | 94.8 | 822 |
| COc1ccc(COc2ccc(Cc3cnc(N)nc3N)cc2OC)cc1 at 5000 nM | 63.7 | 111 | 117 | 57.6 | 46.4 | 28.0 | 176 | 91.0 | 81.0 | 170 |